Experimental data published in patent US7250505.
No constants are given. Whether binding was seen depends on the method and setting. In cells and extracts the contact can be indirect. Binding calls can cover weak binding; strength is not graded here.

Target: epitope-tagged form of the cytoplasmic domain of APP (mT-APP)
Test: co-immunoprecipitation with anti-mDab1 from transfected 293T cells, Western blot to the epitope tag

B1: mDab1 p80 (mDab555 product) (protein)
chain: MSTETELQVAVKTSAKKDSRKKGQDRSEATLIKRFKGEGVRYKAKLIGIDEVSAARGDKLCQDSMMKLKGVVAGARSKGEHKQKIFLTISFGGIKIFDEKTGALQHHHAVHEISYIAKDITDHRAFGYVCGKEGNHRFVAIKTAQAAEPVILDLRDLFQLIYELKQREELEKKAQKDKQCEQAVYQTILEEDVEDPVYQYIVFEAGHEPIRDPETEENIYQVPTSQKKEGVYDVPKSQPVSAVTQLELFGDMSTPPDITSPPTPATPGDAFLPSSSQTLPGSADVFGSMSFGTAAVPSGYVAMGAVLPSFWGQQPLVQQQIAMGAQPPVAQVIPGAQPIAWGQPGLFPATQQAWPTVAGQFPPAAFMPTQTVMPLAAAMFQGPLTPLATVPGTNDSARSSPQSDKPRQKMGKESFKDFQMVQPPPVPSRKPDQPSLTCTSEAFSSYFNKVGVAQDTDDCDDFDISQLNLTPVTSTTPSTNSPPTPAPRQSSPSKSSASHVSDPTADDIFEEGFESPSKSEEQEAPDGSQASSTSDPFGEPSGEPSGDNISPQDGS
With B1 the binding was “binds”.
